Data taken from PMC6942356.

Molecular target: T1, TSPAN9 (endogenous, 5-FU-resistant gastric cancer cells) (human (endogenous in AGS/R)) (UniProt O75954)
T1 sequence: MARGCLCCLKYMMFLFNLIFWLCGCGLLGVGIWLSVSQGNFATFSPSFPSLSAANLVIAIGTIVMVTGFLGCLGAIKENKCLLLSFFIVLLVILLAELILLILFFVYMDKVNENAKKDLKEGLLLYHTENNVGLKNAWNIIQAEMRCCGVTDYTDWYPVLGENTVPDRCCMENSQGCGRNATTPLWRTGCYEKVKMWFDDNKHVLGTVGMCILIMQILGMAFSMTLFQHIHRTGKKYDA
Assay: affinity purification with mass spectrometry; endogenous TSPAN9 complex from drug-resistant cells; immunoprecipitate separated by SDS-PAGE, silver stained, LC-MS/MS

PIK3R3 (p55), regulatory subunit of PI3K (from UniProt Q92569 1-461)
binding: binds

These are yes or no findings as the source states them, for the method shown. In cells and extracts the contact can be indirect. A yes stands for co-enrichment or nearness to the bait. Other partners may have been found.
